Measurements reported in article PMC10989752, “LipR functions as an intracellular pH regulator in Bacillus thuringiensis under glucose conditions”.
For at least one entry, the source does not settle the construct or the ends of the probe. Weaker means in comparison with the reference protein, sequence or condition of that experiment. Tags and fusion partners may be left off the protein sequences shown.

Target: T1, LipR (Bacillus thuringiensis BMB171) (UniProt A0A0G3DYA8)
T1 sequence (looked up, limits assumed): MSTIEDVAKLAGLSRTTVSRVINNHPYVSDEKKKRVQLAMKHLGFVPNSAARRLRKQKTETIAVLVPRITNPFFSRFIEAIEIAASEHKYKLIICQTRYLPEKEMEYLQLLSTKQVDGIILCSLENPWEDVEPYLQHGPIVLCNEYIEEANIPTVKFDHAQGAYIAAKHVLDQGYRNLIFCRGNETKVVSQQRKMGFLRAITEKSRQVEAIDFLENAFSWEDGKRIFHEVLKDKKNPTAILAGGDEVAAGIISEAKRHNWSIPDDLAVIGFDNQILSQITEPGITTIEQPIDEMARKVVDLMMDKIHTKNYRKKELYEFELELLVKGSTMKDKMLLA
Test: EMSA
Conditions: Ni2+ (increasing, 2.5 mM in Fig 5A); LipR: 25 mM Tris pH 8.5-9, 150 mM NaCl, 10% glycerol; CcpA/AbrB: 50 mM Tris-HCl pH 7.5, 10 mM MgCl2, 1 mM DTT, 100 mM NaCl; 28 C, 25 min, 10 ul; recombinant protein; protein details: C-terminal His (pET-28a); label: 5' FAM or Cy5 when labeled; probe letters rebuilt from the primers and the genome

## GGGCCATGGTACAAACGTATGGGCTTTGTAGAAGAAGGCAGACAACGAAAGCAAATTAAATATGAAGATGGATCATATGGAGATGACGTATTGATGGGGTTTTATATTGAATAAAGGATATATGGTATTAAGAAAAGGAATGTACATAACGTAAACTTCTAAAAGCAGTATAAATTCCCCTGCATTAACAGACTTTTCCCTATGTATAATATTAATATAGTAAAATCATAACAACCGATATTGCAGTTTCCAATAATATACTATATAATCAATTTAAGAAAACGTTTTCATGGATCCCC (double strand) [PlipR promoter]
  binding result: binds more weakly
